Measured values reported in publication PMC11850729.
Where a chain is given by its changes, count along the chain named. These are yes or no findings as the source states them, for the method shown. In cells and extracts the contact can be indirect. Some results given as binding are weak or reduced against the parent protein; the word gives no strength. Where a sequence is shown, tags or fusion partners need not be part of it.

Experiments:
Assay in all cases: co-IP; U2OS cells transfected with GFP-tagged bait for 24 h; NP-40 lysis buffer (0.5% NP-40, 25 mM Tris pH 7.5, 100 mM NaCl), lysate 1 mg/ml, overnight at 4 °C with GFP-NanoTrap beads; endogenous partner detected by immunoblot; GFP-KIFC1 with endogenous OTUD6B also seen in cells synchronised in mitosis (30 min into mitotic exit) with wild-type or K11-only ubiquitin overexpressed (Fig. 6D)
GFP-OTUD6B WT (human) = target: T1, GFP-OTUD6B WT (human) (UniProt Q8N6M0)
T1 sequence: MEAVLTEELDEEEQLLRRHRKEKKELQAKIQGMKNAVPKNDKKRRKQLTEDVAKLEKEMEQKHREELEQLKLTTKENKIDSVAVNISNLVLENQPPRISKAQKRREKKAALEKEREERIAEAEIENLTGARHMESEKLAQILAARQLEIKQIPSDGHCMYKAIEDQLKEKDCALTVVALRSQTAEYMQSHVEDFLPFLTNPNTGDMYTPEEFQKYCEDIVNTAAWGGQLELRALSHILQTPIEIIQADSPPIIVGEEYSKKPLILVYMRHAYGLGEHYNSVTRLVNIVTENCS

[1] = target: T2, GFP-OTUD6B ΔC (1-146) (human) (UniProt Q8N6M0)
T2 sequence: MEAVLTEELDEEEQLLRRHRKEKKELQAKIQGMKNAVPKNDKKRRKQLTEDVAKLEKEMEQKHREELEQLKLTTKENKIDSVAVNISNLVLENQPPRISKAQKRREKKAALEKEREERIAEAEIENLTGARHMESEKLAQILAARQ

GFP-OTUD6B-C158S (human) = target: T3, GFP-OTUD6B-C158S (human) (UniProt Q8N6M0)
T3 sequence: T1 sequence with C158S

binding (GFP-OTUD6B WT (human)): binds
binding [1]: binds
binding (GFP-OTUD6B-C158S (human)): binds
B1: endogenous KIFC1 (protein, UniProt Q9BW19 1-673)
chain: MDPQRSPLLEVKGNIELKRPLIKAPSQLPLSGSRLKRRPDQMEDGLEPEKKRTRGLGATTKITTSHPRVPSLTTVPQTQGQTTAQKVSKKTGPRCSTAIATGLKNQKPVPAVPVQKSGTSGVPPMAGGKKPSKRPAWDLKGQLCDLNAELKRCRERTQTLDQENQQLQDQLRDAQQQVKALGTERTTLEGHLAKVQAQAEQGQQELKNLRACVLELEERLSTQEGLVQELQKKQVELQEERRGLMSQLEEKERRLQTSEAALSSSQAEVASLRQETVAQAALLTEREERLHGLEMERRRLHNQLQELKGNIRVFCRVRPVLPGEPTPPPGLLLFPSGPGGPSDPPTRLSLSRSDERRGTLSGAPAPPTRHDFSFDRVFPPGSGQDEVFEEIAMLVQSALDGYPVCIFAYGQTGSGKTFTMEGGPGGDPQLEGLIPRALRHLFSVAQELSGQGWTYSFVASYVEIYNETVRDLLATGTRKGQGGECEIRRAGPGSEELTVTNARYVPVSCEKEVDALLHLARQNRAVARTAQNERSSRSHSVFQLQISGEHSSRGLQCGAPLSLVDLAGSERLDPGLALGPGERERLRETQAINSSLSTLGLVIMALSNKESHVPYRNSKLTYLLQNSLGGSAKMLMFVNISPLEENVSESLNSLRFASKVNQCVIGTAQANRK
